From patent US11985932B2 (priority 2019, dated 2024)

System: rice gene expression (WRKY45 gene and other genes)
Assay: Comprehensive analysis of rice gene expression (RNA-seq) in regenerated plants
Parameters: species or system Oryza sativa cv. Nipponbare

`[Cl-].[Na+]` [NaCl, sodium chloride] was tested, and the “number of genes with significantly changed expression” value (plants regenerated from callus treated with 200 mM NaCl vs control plant) was 1,038 and the “number of genes significantly increased in expression” value (plants regenerated from callus treated with 200 mM NaCl, FDR<0.05) was 753.
